The target in assay [1] is T1, purified His-tagged CGI58 (human comparative gene identification-58) (human) (UniProt Q8WTS1).
T1 sequence: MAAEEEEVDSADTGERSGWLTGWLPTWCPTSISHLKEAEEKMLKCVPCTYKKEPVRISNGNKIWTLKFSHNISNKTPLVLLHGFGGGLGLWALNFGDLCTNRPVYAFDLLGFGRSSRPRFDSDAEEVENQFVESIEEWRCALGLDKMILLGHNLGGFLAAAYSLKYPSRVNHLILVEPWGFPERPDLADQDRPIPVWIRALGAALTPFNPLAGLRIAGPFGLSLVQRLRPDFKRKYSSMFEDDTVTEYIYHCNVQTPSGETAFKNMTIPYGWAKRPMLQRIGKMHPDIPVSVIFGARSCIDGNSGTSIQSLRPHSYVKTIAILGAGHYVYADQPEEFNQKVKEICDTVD
Nature of the assay: co-IP; 12 μg purified His-CGI58 mixed with precleared mouse placenta lysate and 10 μg anti-His antibody or mouse IgG (control), overnight at 4°C, Protein G Dynabeads, blot for His-CGI58 and PNPLA9; only the target purified.

The chains behind the UniProt entries cited, without tags or fusion partners.
UniProt Q9DBL9: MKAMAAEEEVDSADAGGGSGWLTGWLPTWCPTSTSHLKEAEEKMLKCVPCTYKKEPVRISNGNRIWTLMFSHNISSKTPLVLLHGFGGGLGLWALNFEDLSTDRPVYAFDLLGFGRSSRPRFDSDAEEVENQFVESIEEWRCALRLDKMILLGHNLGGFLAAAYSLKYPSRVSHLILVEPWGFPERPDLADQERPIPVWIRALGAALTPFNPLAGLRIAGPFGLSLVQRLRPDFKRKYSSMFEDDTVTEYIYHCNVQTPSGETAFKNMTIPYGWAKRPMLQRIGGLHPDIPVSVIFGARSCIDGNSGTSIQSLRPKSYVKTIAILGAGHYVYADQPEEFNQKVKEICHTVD

The target in assay [2] is His-CGI58 (mouse), overexpressed in HEK293T cells (mouse) (UniProt Q9DBL9). Nature of the assay: co-IP; HEK293T cells coexpressing FLAG-PNPLA9 and His-CGI58; lysate in 100 mM NaCl, 50 mM Tris-HCl pH 7.2, 1% Triton X-100, 2 mM β-mercaptoethanol; IP with anti-His overnight at 4°C, WB with anti-FLAG.

No constants are given. Whether binding was seen depends on the method and setting. Binding seen in cells or lysates may run through a third protein. Some results given as binding are weak or reduced against the parent protein; the word gives no strength. Tags and fused reporters may be left off the sequences shown.

B1: endogenous PNPLA9 of mouse placenta (protein, UniProt P97819 1-807)
chain: MQFFGRLVNTLSSVTNLFSNPFRVKEVSLTDYVSSERVREEGQLILLQNVSNRTWDCVLVSPRNPQSGFRLFQLESEADALVNFQQFSSQLPPFYESSVQVLHVEVLQHLTDLIRNHPSWTVTHLAVELGIRECFHHSRIISCANSTENEEGCTPLHLACRKGDSEILVELVQYCHAQMDVTDNKGETAFHYAVQGDNPQVLQLLGKNASAGLNQVNNQGLTPLHLACKMGKQEMVRVLLLCNARCNIMGPGGFPIHTAMKFSQKGCAEMIISMDSNQIHSKDPRYGASPLHWAKNAEMARMLLKRGCDVDSTSSSGNTALHVAVMRNRFDCVMVLLTYGANAGARGEHGNTPLHLAMSKDNMEMVKALIVFGAEVDTPNDFGETPALIASKISKLITRKALLTLLKTVGADHHFPIIQGVSTEQGSAAATHPLFSLDRTQPPAISLNNLELQDLMPISRARKPAFILSSMRDEKRSHDHLLCLDGGGVKGLVIIQLLIAIEKASGVATKDLFDWVAGTSTGGILALAILHSKSMAYMRGVYFRMKDEVFRGSRPYESGPLEEFLKREFGEHTKMTDVKKPKVMLTGTLSDRQPAELHLFRNYDAPEAVREPRCNQNINLKPPTQPADQLVWRAARSSGAAPTYFRPNGRFLDGGLLANNPTLDAMTEIHEYNQDMIRKGQGNKVKKLSIVVSLGTGKSPQVPVTCVDVFRPSNPWELAKTVFGAKELGKMVVDCCTDPDGRAVDRARAWCEMVGIQYFRLNPQLGSDIMLDEVSDAVLVNALWETEVYIYEHREEFQKLVQLLLSP
As to B1, in assay [1], the binding entry is recorded as “binds”.

B2: FLAG-PNPLA9 (mouse), overexpressed in HEK293T cells (protein, UniProt P97819 1-807)
chain: MQFFGRLVNTLSSVTNLFSNPFRVKEVSLTDYVSSERVREEGQLILLQNVSNRTWDCVLVSPRNPQSGFRLFQLESEADALVNFQQFSSQLPPFYESSVQVLHVEVLQHLTDLIRNHPSWTVTHLAVELGIRECFHHSRIISCANSTENEEGCTPLHLACRKGDSEILVELVQYCHAQMDVTDNKGETAFHYAVQGDNPQVLQLLGKNASAGLNQVNNQGLTPLHLACKMGKQEMVRVLLLCNARCNIMGPGGFPIHTAMKFSQKGCAEMIISMDSNQIHSKDPRYGASPLHWAKNAEMARMLLKRGCDVDSTSSSGNTALHVAVMRNRFDCVMVLLTYGANAGARGEHGNTPLHLAMSKDNMEMVKALIVFGAEVDTPNDFGETPALIASKISKLITRKALLTLLKTVGADHHFPIIQGVSTEQGSAAATHPLFSLDRTQPPAISLNNLELQDLMPISRARKPAFILSSMRDEKRSHDHLLCLDGGGVKGLVIIQLLIAIEKASGVATKDLFDWVAGTSTGGILALAILHSKSMAYMRGVYFRMKDEVFRGSRPYESGPLEEFLKREFGEHTKMTDVKKPKVMLTGTLSDRQPAELHLFRNYDAPEAVREPRCNQNINLKPPTQPADQLVWRAARSSGAAPTYFRPNGRFLDGGLLANNPTLDAMTEIHEYNQDMIRKGQGNKVKKLSIVVSLGTGKSPQVPVTCVDVFRPSNPWELAKTVFGAKELGKMVVDCCTDPDGRAVDRARAWCEMVGIQYFRLNPQLGSDIMLDEVSDAVLVNALWETEVYIYEHREEFQKLVQLLLSP
Regarding B2, the binding result in assay [2] is “binds”.
